Assay results from doi:10.1101/2022.03.29.486267.
These are yes or no findings as the source states them, for the method shown. Binding seen in cells or lysates may run through a third protein. Some entries that bind do so weakly or less than the wild type. Tags and fused reporters may be left off the sequences shown.

Biological target: T1, CheZ-mYFP (E. coli) (UniProt P0A9H9)
T1 sequence: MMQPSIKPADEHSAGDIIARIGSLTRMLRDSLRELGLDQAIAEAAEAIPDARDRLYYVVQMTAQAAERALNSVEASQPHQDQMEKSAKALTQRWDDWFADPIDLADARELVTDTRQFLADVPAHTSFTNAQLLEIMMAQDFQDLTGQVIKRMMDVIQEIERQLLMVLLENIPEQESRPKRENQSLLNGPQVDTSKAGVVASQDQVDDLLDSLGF
Assay: FRET or BRET

binding: binds
B1: CheY-mRFP (protein, UniProt P0AE67 1-129)
chain: MADKELKFLVVDDFSTMRRIVRNLLKELGFNNVEEAEDGVDALNKLQAGGYGFVISDWNMPNMDGLELLKTIRADGAMSALPVLMVTAEAKKENIIAAAQAGASGYVVKPFTAATLEEKLNKIFEKLGM
modifications: phosphorylated by CheA (residue not given)
